Results as given in patent US20100136660A1 (published 2010).

How the values were obtained:
Assay in all cases: phage ELISA
[1] = target: GAP-DH (glyceraldehyde-3-phosphate dehydrogenase)
cytochrome C = target: cytochrome C
[2] = target: keyhole limpet haemocyanin (keyhole limpet)
trypsin inhibitor = target: trypsin inhibitor

Measured: binding

B1: human scFv VH14.1/VL14.1 (lysozyme binder from unimmunized library) (scFv, V domains shown)
VH: QVQLQESGPGLVKPSETLSLVCTVSGGSLSFSYWGWIRQPPGKGLEWIGYISHRGTDYNSSLQSRVTISADTSKNQFSLKLSSVTAADTAVYYCARSFSNSFFFGYWGQGT
VL: SSELTQDPAVSVAFGQTVRITCQGDSLRSSYASWYQQKPGQAPLLVIYGENSRPSGIPDRFSGSSSGNTASLTITGAQAEDEADYYCNSRDSRGTHLEVFGG
notes: scFv on phage from pHEN1
no binding (tested: 100 ug/ml coating): all assays above

B2: human scFv VH13.1/VL13.1 (lysozyme binder from unimmunized library) (scFv, V domains shown)
VH: QVQLVQSGAEVKKPGQSLMISCQGSGYSFSNYWIGWVRQMPGKGLEWMGIIYPGDSDTRYSPSFQGQVTISADKSISTAYLHWSSLKASDTALYYCARLVGGTPAYWGQGT
VL: HVILTQPASVSGSPGQSITISCTGSSRDVGGYNYVSWYQHHPGKAPKLLISEVTNRPSGVSNRFSGSKSGNTASLTISGLQAEDEADYFCASYTSSKTYVFGG
notes: scFv on phage from pHEN1
no binding (tested: 100 ug/ml coating): all assays above

No constants are given. Whether binding was seen depends on the method and setting.
